# Assay results: patent publication US20170306047A1, “PHARMACEUTICAL COMPOSITION FOR CANCER PREVENTION AND TREATMENT, CONTAINING NDRG3 EXPRESSION OR ACTIVITY INHIBITOR AS ACTIVE INGREDIENT, OR NDRG3 PROTEIN-SPECIFIC ANTIBODY AND USE THEREOF” (KOREA RESEARCH INSTITUTE OF BIOSCIENCE AND BIOTECHNOLOGY, priority 2014, published 2017)
# For at least one compound, name, drawing or mass did not settle the structure.
# Test system: NDRG3 protein in HeLa cells
# Assay: NDRG3 protein expression under excessive lactate generation, HeLa cells
# Type: cell-based
# Settings: LDHA overexpression and/or 50 mM pyruvate, 24 hours, light hypoxic condition (3% O2)
smiles,measurement,value
CC(=O)C(=O)O [pyruvate],accumulation of NDRG3 protein,increased
